## Screening data, single-dose tests

Sequences of proteins named here, by UniProt entry; tags and fusion partners are left off.
UniProt P9WNZ1, whole entry: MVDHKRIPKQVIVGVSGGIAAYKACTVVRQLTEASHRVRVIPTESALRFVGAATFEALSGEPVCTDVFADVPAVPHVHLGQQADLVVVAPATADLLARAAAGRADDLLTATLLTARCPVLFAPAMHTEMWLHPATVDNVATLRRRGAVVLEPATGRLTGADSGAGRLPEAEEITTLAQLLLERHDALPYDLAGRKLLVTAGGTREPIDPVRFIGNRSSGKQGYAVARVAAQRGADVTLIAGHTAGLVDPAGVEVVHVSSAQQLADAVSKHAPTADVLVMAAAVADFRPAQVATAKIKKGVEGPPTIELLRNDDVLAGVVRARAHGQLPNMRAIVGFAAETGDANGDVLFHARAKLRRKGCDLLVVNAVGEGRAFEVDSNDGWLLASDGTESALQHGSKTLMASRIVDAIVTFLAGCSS
UniProt P9WFT3, whole entry: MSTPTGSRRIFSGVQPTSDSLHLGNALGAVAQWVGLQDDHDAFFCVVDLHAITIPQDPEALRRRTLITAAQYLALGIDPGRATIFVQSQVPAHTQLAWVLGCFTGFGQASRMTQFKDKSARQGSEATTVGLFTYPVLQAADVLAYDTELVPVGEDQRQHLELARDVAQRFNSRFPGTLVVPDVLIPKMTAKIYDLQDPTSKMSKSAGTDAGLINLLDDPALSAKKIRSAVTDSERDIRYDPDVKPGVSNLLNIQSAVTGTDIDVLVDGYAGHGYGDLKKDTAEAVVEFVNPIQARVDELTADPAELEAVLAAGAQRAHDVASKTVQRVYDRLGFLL

A: 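Enzyme assay of CoaBC with a phosphate dye (Biomol Green) read at 650 nm. Target: Coenzyme A biosynthesis protein CoaBC, Mycobacterium tuberculosis (UniProt P9WNZ1). Concentration: 30 µM. Higher reads as stronger inhibition, judged from the few compounds that gave an IC50. Most strong results did not repeat in a second test. About 67,000 compounds were tested under these conditions; 0.06% (about 40) showed 50% or more at least once.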
B: 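Enzyme assay of tryptophanyl-tRNA synthetase; the read-out is not stated. Target: Tryptophan-tRNA ligase, Mycobacterium tuberculosis (UniProt P9WFT3). Tested at 10 µM. Higher most likely means stronger inhibition; the record gives no direction and few retests gave an IC50. Of about 65,000 compounds tested this way, about 64 (0.098%) reached 50% or more in at least one test.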

The filed quantity is “Percent Effect” (%).
The record does not define 0% and 100%; most values in the screen are far below 50% and negative numbers occur (in some assays of this library far below -100).
Compounds were drawn at random from those tested, without regard to their results.
A dash means the value is not listed here; it may have been measured.

Compound	A	B
OCCN1CCN(CC(O)c2cc(Cl)ccc2Cl)CC1 (stereo not given)	-10.53%	0.1638%
COc1cc(-n2cc(CCO)cn2)ccc1NC(C)=O	3.422%	-0.5376%
Cc1cccc(CN2CCC3(CCN(c4ncccn4)CC3)C2=O)c1	1.673%	-7.703%
CN1C(=O)C2(CCN(C(=O)c3ccccc3)CC2)c2cccc(F)c21	3.171%	-10.36%
NCCn1nc(C2CCN(C(=O)CC3CCCCC3)C2)c2nccnc21 (stereo not given)	-5.181%	3.7%
Cc1cnn(C(C)C2CC2)c1NC(=O)c1ccncc1 (stereo not given)	-5.702%	1.921%
CCN(CC)CC(=O)N1CCN(c2nc(C)cc(OC)n2)CC1	1.279%	-6.656%
COc1ccc(C2=Nn3c(CCCN)nnc3-c3ccccc3C2)cc1	9.747%	6.102%
N#Cc1ccnc(N2CCC(NCCN3CCCC3)CC2)c1	1.585%	7.417%
O=C(NCc1cccnc1)N[C@H]1CC[C@@]2(CCC(=O)N2CC2CC2)CC1	-0.2475%	-
CC(C)COCC1CN(Cc2ccsc2)Cc2ncn(C)c21 (stereo not given)	0.6588%	-2.375%
CCc1nncn1CCNC(=O)N1CCCC(Cc2nccn2C)C1 (stereo not given)	-0.5076%	0.1937%
Cc1ccc(N2CCC3(CCN(C(=O)c4ccccn4)CC3)CC2)nn1	10.83%	-2.094%
COCCn1ccnc1-c1[nH]cnc1C	-4.642%	-1.025%
NC(=O)c1csc(N2C[C@@H](CN3CCOCC3)[C@@H](CO)C2)n1	0.9709%	1.363%
Fc1cnc(N2C[C@@H]3C[C@@H](c4nc(C5CC5)cs4)O[C@@H]3C2)nc1	3.171%	-
CCOCC1CCN(C(=O)C(c2c(F)cccc2F)N(C)C)CC1 (stereo not given)	-0.1626%	-5.133%
Cc1nn(C)c(C)c1NC(=O)CN1CCc2c(nc(C3CC3)n2C)C1	1.493%	-1.625%
CC(=O)c1cccc(CN2CC(Oc3ccccc3C)C2)c1	-0.8537%	1.325%
OC(COCc1ccccc1)CN1CCC(Cn2cccn2)CC1 (stereo not given)	3.181%	-2.673%
O=C(NCc1cncc2c1CCN(CC1CCOC1)C2)c1ccno1 (stereo not given)	15.13%	4.958%
CCC(CNC(=O)CCn1cncn1)N1CCc2ccccc2C1 (stereo not given)	7.753%	3.485%
C=C(C)CN1CCCC(NS(C)(=O)=O)C1 (stereo not given)	5.804%	-4.85%
Cc1ccnc(C2COCCN2C)n1 (stereo not given)	-13.56%	2.023%
Cc1ncc(CN(C)C2CCCN(CCc3ccccc3)C2)n1C (stereo not given)	4.704%	3.696%
COCCN1CCCC2(CCN(c3nc(C)nc4ccsc34)C2)C1=O (stereo not given)	-	4.334%
Cc1cccc(N2CCN(C(=O)c3c(C)nn(C)c3C)CC2)c1C	5.455%	-0.1468%
CC(C)c1ccc(OCC(=O)N2CCOCC2c2ncon2)cc1 (stereo not given)	-0.8149%	-5.367%
CC(C)S(=O)(=O)N1CCCC(c2nnc(Cn3ccnc3)n2C)C1 (stereo not given)	6.867%	-1.495%
CCN(CC)C(=O)[C@@H]1C[C@@H](N)CN1C(=O)c1cc2c([nH]c1=O)CCC2	3.1%	-0.8835%
CN(C)C(C(=O)NCCn1cccc1)c1cccc(F)c1 (stereo not given)	2.774%	0.07246%
COCCN(Cc1ccoc1)C(=O)c1c(F)cccc1Cl	1.141%	-0.7718%
CNc1cc2c(nn1)CCN(C(=O)c1cc(F)cc(F)c1)C2	5.897%	4.144%
Cc1cc(C)c(CNC(=O)C2CCN(c3cnccn3)CC2)c(=O)[nH]1	0.2558%	-4.264%
COc1ccc(-c2csc(-c3cccc(C(=O)O)c3)n2)cc1OC	-8.911%	-10.3%
CNC(=O)C1CN(C(C)C)CCN1c1nc(C)cc(C)n1 (stereo not given)	-0.7282%	-10.08%
COc1cc(OC)cc(C2(O)CCN(Cc3nc(C)c(C)o3)CC2)c1	-	-2.786%
COc1cccc2c1OCC(CNC(=O)COCC(F)(F)C(F)F)C2 (stereo not given)	9.346%	0.5947%
O=C(Cn1ccc2c(Cl)cccc21)N1CCCC1	1.022%	-0.9889%
Cn1ccnc1C(=O)NC[C@@H]1OC[C@H]2CN(CC3CC3)CC[C@H]21	-0.2463%	-8.422%
CCn1ccnc1CNc1nccc(-c2c(C)nn(C)c2C)n1	2.273%	-0.7435%
CC(C)=CCC1(CO)CCCN(Cc2cnc(N3CCOCC3)nc2)C1 (stereo not given)	-5.652%	-0.867%
Cc1cnn(C2CCCN(C(=O)C3=NN(C)C(=O)CC3)C2)c1 (stereo not given)	1.305%	-1.956%
CC(c1ccc2c(c1)OCCO2)N(C)C(=O)c1ccnnc1 (stereo not given)	-12.95%	-0.9009%
CCOc1ccc(C(=O)N2CCN(c3nccn3C)CC2)cc1	3.821%	-2.205%
Cc1cc(=O)n2nc(Oc3cc(Cl)cc(Cl)c3)sc2n1	7.654%	-0.7651%
O=C(c1ccc(Sc2ccccn2)cc1)N1CCCSCC1	-0.2358%	-1.694%
O=C(c1ccc2c(c1)OCO2)N1CCCSCC1CN1CCCC1 (stereo not given)	2.408%	0.1103%
CCN(CC)c1ncnc2c1CCN(C(=O)Cc1ccccn1)CC2	6.266%	4.426%
COc1ccc(-c2ccnc3nc(N4CCCC4)[nH]c(=O)c23)cc1OC	-2.895%	2.679%
COC1(CNS(=O)(=O)c2ccccc2Cl)CCSC1 (stereo not given)	4.202%	-5.832%
COc1cccc(CNC(=O)C(C)N2CC(n3nc(C)cc3C)C2)c1 (stereo not given)	0.6143%	5.829%
CC(C)C(NC(=O)Nc1cnn(CC(N)=O)c1)c1ccc(Cl)cc1 (stereo not given)	0%	-5.899%
Cc1cc(OC(F)F)c(C(=O)NCC(O)c2cccc(F)c2)s1 (stereo not given)	7.991%	-2.687%
CCOc1ccc(CNCC(O)c2ccccc2)cc1Cl (stereo not given)	-39.61%	-3.06%
N#CCC(=O)NCc1nnc2n1CCN(Cc1cccs1)C2	-	1.066%
COc1cc(C)ccc1OCC(=O)NS(=O)(=O)c1cc(F)ccc1F	8.654%	-3.616%
CN1CCC(O)(CCNC(=O)[C@@]23CNC[C@@H]2CN(C2CCCC2)C3)CC1	-22.33%	11.27%
Cc1cnc(C)c(N2CCC(c3nnc(CN(C)C)n3C3CC3)CC2)n1	-0.9862%	4.155%
CCOCCn1nc(C)cc1C(=O)N1CCC2(CC1)[C@H](O)C[C@@H]2OCC	-2.533%	0.2174%
Cc1nc(CN(C)C2CCN(CCCc3ccccc3)C2)no1 (stereo not given)	-4.826%	2.101%
Cc1cnn(C2CN(CC(O)Cn3cccn3)C2)c1 (stereo not given)	-1.72%	1.568%
COc1cccc(N2CCN(CCC(=O)NC3CCCC3)CC2)c1	-0.4049%	-3.072%
Cc1csc(CNC(=O)NC2CCN(c3ncccn3)CC2)n1	13.55%	1.562%
Cc1nc(CN2CCCC(NCCOCC(F)(F)F)C2)no1 (stereo not given)	-2.314%	-0.07868%
Cc1nc(NCc2noc(C3CCCO3)n2)c2ccsc2n1 (stereo not given)	3.03%	5.806%
O=S(=O)(NC1CCCN(c2ncccn2)C1)N1CCCCCC1 (stereo not given)	1.827%	2.147%
CN1CC(NC(=O)CCOc2cccc(Cl)c2)CC1=O (stereo not given)	-	-0.5045%
O=C(NCc1nncn1C1CC1)c1ccccc1OCC1CC1	0.6369%	3.17%
CCOc1ccc(C(=O)N2Cc3cnc(CC(C)C)nc3C2)o1	4.113%	2.344%
O=C1NC2(CCCCC2)c2nnnn2-c2ccc(Br)cc21	0.4673%	-1.511%
CC(C)CN(Cc1ccccn1)Cc1ccccc1OCC(=O)O	1.351%	4.844%
Cc1cc(C)nc(N2CCC(OCCN3CCCCC3)C2)n1 (stereo not given)	2.4%	17.8%
CCC(C)NS(=O)(=O)c1ccc(C(=O)NC2(C#N)CCC2)cc1 (stereo not given)	1.908%	-0.4454%
COCCN1CCC(CNC(=O)C2(c3cc(C)cc(C)c3)CCC2)C1 (stereo not given)	2.838%	2.827%

For reference, 10 entries once more:

| Compound | A | B |
|---|---|---|
| `CCOc1ccc(C(=O)N2Cc3cnc(CC(C)C)nc3C2)o1` | 4.113% | 2.344% |
| `N#Cc1ccnc(N2CCC(NCCN3CCCC3)CC2)c1` | 1.585% | 7.417% |
| `Cc1ccc(N2CCC3(CCN(C(=O)c4ccccn4)CC3)CC2)nn1` | 10.83% | -2.094% |
| `CN1C(=O)C2(CCN(C(=O)c3ccccc3)CC2)c2cccc(F)c21` | 3.171% | -10.36% |
| `CCc1nncn1CCNC(=O)N1CCCC(Cc2nccn2C)C1` (stereo not given) | -0.5076% | 0.1937% |
| `Cc1cccc(CN2CCC3(CCN(c4ncccn4)CC3)C2=O)c1` | 1.673% | -7.703% |
| `Cc1cnc(C)c(N2CCC(c3nnc(CN(C)C)n3C3CC3)CC2)n1` | -0.9862% | 4.155% |
| `Cc1csc(CNC(=O)NC2CCN(c3ncccn3)CC2)n1` | 13.55% | 1.562% |
| `CC(C)CN(Cc1ccccn1)Cc1ccccc1OCC(=O)O` | 1.351% | 4.844% |
| `COc1cc(C)ccc1OCC(=O)NS(=O)(=O)c1cc(F)ccc1F` | 8.654% | -3.616% |

Measurements from “University of Dundee, Small-Polar-MMV Screening Library” (2021), ChEMBL document CHEMBL3988442.